Assay [1] concerns the target EF0942, first half-transporter of the heterodimeric ABC transporter EF0942-EF0941 (Enterococcus faecalis V583) (UniProt Q837A1). As to the kind of experiment: pull-down; co-purification: both half-transporters co-expressed in L. lactis, membranes solubilised with 1% β-DDM, Ni-NTA via the deca-His tag on the N terminus of the first chain, eluted with 200 mM imidazole pH 7.5, 200 mM NaCl, 10% glycerol, 0.03% β-DDM; SDS-PAGE (EfrC and EfrD bands confirmed by MALDI-TOF).

Chains of the proteins cited; added tags and fusions are not shown. Lines headed by an entry give the natural chain unless they say otherwise; changes in a name come on top.
UniProt Q837A2: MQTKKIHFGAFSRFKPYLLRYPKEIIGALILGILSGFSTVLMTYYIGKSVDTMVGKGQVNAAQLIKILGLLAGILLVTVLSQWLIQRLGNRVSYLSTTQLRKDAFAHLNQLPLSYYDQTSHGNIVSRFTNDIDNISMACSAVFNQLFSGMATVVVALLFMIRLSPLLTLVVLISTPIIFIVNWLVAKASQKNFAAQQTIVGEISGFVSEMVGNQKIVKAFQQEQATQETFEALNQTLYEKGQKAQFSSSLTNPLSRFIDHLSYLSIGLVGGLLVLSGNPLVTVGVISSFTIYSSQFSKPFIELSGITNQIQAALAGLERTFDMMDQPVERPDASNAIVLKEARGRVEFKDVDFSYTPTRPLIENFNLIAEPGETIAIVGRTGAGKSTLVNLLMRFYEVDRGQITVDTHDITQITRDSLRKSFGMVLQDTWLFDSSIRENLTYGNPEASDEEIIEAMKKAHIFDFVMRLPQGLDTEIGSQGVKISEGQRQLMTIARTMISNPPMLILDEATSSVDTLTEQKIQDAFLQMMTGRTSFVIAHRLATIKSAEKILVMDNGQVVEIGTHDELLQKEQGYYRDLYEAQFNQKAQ
UniProt Q82ZX8: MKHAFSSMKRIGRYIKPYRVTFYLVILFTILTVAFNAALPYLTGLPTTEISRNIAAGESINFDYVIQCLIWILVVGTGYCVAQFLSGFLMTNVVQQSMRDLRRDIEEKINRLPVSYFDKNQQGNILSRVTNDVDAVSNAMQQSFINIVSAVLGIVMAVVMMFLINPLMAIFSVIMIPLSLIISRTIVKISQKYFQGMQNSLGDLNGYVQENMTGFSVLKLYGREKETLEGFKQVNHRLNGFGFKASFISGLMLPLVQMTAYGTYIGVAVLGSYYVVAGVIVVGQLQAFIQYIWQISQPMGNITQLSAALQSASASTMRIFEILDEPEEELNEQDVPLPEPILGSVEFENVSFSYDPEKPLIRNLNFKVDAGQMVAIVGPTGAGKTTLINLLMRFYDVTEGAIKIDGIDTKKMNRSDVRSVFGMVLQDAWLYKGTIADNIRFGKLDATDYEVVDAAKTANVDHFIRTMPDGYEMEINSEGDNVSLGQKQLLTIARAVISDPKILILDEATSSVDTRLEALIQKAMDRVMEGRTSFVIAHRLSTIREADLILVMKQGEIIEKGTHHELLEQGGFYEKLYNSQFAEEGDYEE

The target of assay [2] is EfrA (EF2920), first half-transporter of the heterodimeric ABC transporter EfrAB (Enterococcus faecalis V583) (UniProt Q82ZX7). Described as above.

No constants are given. Whether binding was seen depends on the method and setting. Binding seen in cells or lysates may run through a third protein. Binding can be weak; no strength is given.

In the case of “EF0941, second half-transporter of the heterodimeric ABC transporter EF0942-EF0941 (from UniProt Q837A2)”, the binding result in assay [1] is given as “binds”. As to “EfrB (EF2919), second half-transporter of the heterodimeric ABC transporter EfrAB (from UniProt Q82ZX8)”, the binding entry in assay [2] is reported as “binds”.

The record behind these values is publication PMC4997860, “The Heterodimeric ABC Transporter EfrCD Mediates Multidrug Efflux in Enterococcus faecalis” (Antimicrobial Agents and Chemotherapy, 2016).
